In one assay the target is T1, Mouse OFD1 S75F (mouse) (UniProt Q80Z25).
T1 sequence: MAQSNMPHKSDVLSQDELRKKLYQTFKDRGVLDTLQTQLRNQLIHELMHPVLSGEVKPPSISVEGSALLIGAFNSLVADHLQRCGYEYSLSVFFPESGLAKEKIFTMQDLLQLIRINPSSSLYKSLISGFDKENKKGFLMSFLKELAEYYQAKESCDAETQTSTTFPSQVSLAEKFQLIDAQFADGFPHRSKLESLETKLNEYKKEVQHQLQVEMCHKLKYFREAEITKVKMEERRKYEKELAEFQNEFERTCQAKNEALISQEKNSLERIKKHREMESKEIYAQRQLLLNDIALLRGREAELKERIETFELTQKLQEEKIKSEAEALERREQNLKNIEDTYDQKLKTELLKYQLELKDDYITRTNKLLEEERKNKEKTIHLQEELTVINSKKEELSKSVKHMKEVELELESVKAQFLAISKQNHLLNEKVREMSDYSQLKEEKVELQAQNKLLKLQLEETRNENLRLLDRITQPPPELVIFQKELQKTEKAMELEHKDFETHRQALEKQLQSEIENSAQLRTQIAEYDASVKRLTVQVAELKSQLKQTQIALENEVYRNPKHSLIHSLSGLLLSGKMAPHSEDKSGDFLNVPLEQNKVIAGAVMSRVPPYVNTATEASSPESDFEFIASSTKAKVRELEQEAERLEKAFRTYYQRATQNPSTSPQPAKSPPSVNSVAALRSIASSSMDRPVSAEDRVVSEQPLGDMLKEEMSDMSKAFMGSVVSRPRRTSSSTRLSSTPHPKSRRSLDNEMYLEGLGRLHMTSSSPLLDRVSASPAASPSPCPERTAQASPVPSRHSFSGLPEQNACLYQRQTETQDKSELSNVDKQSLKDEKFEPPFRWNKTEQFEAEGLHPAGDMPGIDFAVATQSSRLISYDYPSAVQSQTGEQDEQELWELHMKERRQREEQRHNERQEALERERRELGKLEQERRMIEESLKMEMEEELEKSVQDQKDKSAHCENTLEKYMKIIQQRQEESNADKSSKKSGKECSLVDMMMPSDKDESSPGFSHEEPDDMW
The experiment in a line: co-IP; OFD1 mutants co-expressed with TRAPPC8 or TRAPPC12; IP efficiency as ratio of immunoprecipitated TRAPPC8/OFD1 or TRAPPC12/OFD1; cell line and IP antibody not stated for this panel.

The next assay has as its target T2, Mouse OFD1 G139S (mouse) (UniProt Q80Z25).
T2 sequence: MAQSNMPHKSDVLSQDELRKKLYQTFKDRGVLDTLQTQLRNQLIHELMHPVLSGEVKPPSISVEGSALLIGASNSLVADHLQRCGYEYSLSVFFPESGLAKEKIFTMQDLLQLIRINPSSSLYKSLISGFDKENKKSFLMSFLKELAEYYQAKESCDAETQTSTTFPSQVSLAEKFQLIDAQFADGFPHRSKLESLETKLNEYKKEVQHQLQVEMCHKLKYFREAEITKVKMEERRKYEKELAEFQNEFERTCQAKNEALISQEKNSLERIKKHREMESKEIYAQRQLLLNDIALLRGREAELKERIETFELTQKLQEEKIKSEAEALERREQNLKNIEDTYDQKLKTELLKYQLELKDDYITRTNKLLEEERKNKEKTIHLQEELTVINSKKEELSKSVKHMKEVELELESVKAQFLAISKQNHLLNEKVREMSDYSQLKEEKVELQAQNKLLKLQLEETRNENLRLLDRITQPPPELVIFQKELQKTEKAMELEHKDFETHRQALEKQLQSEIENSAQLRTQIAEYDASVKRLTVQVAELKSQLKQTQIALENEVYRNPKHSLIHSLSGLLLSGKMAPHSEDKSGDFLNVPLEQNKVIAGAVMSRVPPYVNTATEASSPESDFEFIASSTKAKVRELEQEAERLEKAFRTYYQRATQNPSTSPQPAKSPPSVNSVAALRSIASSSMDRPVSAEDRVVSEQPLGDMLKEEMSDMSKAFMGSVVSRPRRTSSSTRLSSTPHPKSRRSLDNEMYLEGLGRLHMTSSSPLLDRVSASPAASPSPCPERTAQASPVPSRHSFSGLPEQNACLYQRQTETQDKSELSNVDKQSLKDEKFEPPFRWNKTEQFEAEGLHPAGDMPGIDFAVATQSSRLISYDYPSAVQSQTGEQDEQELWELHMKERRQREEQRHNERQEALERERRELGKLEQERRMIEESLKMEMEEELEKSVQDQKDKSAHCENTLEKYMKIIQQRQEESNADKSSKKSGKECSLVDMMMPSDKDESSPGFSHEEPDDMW
The description is as above.

These are yes or no findings as the source states them, for the method shown. In cells and extracts the contact can be indirect. Some entries that bind do so weakly or less than the wild type. Tags and fused reporters may be left off the sequences shown.

B1: NTAP-tagged TRAPPC12 (protein, UniProt Q8K2L8 1-797)
chain: METAKDGEQSPSEASPSAQAGPENIPEPMSREEESQPLYHEETIDLGGDEFASEENEPTSEGSHNFGDKLNEHMMESVLISDSPNNSEGDVGDLGCLQDVGEPPRGATDHRLPSSTDKEVVDTLSNGSETDGDDTPRDISDMTPDSRASLKEDSTQEDVTSMPALENAATEEVGPKDSLAPREEQTSEVSSNQSSSKDEPLPVCTIFSQATATPSQPHLFLQDGFESQMVKSPSFSSTSETSAKTPPPMVQPSPSLSTFFGDTMSSNSLASDFFDSFTTSTFISVSNPNAGSPVPEKLSSLTAPVGEKSPDSTSPSYSTRMDRSESGVSRAPLDVPESPKPFSQIQAVFAGSDDPFATALSMSEMDRRNDAWLPSQATREVLMSVATQQYGTVFIDKENLTMPGLKFDNIQGDAVKDLMLRFLGEKAAAKRQVLNASSVEQSFVGLKQLISCRNWRAAVDLCGRLLTAHGQGYGKNGLPTSHTTDSLQLWFVRLALLVKLGLFQNAEMEFEPFGNLDQPDLYYEYYPHVYPGRRGSMVPFSMRILHAELQQYLGNPQESLDRLHRVKTVCSKILANLEQGLAEDGGLSSVTQESRQASVQLWRSRLGRVLYSMANCLLLMKDYVLAVDAYLTVIKYYPEQEPQLLSGIGRILLQIGDIKTAEKYFQDVEKVTQKLDGLQGKIMVLMNRAFLYLGQNNFAEAHKFFTEILRMDPTNAVANNNAAVCLLYLGKLKDSLRQLEAMVQQDPRHYLHESVLFNLTTMYELESSRSMQKKQSLLEAVASKEGDSFNTQCLKLA
Turning to B1, the binding entry with Mouse OFD1 S75F (mouse) and with Mouse OFD1 G139S (mouse) was “binds” each time.

The values above are taken from paper PMC7090148 (2020).
